Where a name gives a salt, the structure may show the parent alone. The list shows a part of the results. The calls rarely recur for the same compound in another form.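 In K562 cells expressing nanoluciferase-fused kinases, luminescence was recorded at 4 h intervals between 2 and 18 h, normalized as percent of control with DMSO at 100% and a positive control at 0%. A significant (2 sigma) signal drop marks a time point as decreased. The authors' rule for a hit is not shown and takes in more than the number of time points.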
Molecular target: PIK4CA (UniProt P42356)
Experiment: kinase-Nluc reporter destabilization hit call (1 = scored as downregulated) (binary); higher = compound decreases kinase abundance
Conditions: K562; 2-18 h

Sequences of proteins named here, by UniProt entry; tags and fusion partners are left off. A change or cut given only in a name is not applied to a line headed by its entry.
UniProt P42356, whole entry, looked up: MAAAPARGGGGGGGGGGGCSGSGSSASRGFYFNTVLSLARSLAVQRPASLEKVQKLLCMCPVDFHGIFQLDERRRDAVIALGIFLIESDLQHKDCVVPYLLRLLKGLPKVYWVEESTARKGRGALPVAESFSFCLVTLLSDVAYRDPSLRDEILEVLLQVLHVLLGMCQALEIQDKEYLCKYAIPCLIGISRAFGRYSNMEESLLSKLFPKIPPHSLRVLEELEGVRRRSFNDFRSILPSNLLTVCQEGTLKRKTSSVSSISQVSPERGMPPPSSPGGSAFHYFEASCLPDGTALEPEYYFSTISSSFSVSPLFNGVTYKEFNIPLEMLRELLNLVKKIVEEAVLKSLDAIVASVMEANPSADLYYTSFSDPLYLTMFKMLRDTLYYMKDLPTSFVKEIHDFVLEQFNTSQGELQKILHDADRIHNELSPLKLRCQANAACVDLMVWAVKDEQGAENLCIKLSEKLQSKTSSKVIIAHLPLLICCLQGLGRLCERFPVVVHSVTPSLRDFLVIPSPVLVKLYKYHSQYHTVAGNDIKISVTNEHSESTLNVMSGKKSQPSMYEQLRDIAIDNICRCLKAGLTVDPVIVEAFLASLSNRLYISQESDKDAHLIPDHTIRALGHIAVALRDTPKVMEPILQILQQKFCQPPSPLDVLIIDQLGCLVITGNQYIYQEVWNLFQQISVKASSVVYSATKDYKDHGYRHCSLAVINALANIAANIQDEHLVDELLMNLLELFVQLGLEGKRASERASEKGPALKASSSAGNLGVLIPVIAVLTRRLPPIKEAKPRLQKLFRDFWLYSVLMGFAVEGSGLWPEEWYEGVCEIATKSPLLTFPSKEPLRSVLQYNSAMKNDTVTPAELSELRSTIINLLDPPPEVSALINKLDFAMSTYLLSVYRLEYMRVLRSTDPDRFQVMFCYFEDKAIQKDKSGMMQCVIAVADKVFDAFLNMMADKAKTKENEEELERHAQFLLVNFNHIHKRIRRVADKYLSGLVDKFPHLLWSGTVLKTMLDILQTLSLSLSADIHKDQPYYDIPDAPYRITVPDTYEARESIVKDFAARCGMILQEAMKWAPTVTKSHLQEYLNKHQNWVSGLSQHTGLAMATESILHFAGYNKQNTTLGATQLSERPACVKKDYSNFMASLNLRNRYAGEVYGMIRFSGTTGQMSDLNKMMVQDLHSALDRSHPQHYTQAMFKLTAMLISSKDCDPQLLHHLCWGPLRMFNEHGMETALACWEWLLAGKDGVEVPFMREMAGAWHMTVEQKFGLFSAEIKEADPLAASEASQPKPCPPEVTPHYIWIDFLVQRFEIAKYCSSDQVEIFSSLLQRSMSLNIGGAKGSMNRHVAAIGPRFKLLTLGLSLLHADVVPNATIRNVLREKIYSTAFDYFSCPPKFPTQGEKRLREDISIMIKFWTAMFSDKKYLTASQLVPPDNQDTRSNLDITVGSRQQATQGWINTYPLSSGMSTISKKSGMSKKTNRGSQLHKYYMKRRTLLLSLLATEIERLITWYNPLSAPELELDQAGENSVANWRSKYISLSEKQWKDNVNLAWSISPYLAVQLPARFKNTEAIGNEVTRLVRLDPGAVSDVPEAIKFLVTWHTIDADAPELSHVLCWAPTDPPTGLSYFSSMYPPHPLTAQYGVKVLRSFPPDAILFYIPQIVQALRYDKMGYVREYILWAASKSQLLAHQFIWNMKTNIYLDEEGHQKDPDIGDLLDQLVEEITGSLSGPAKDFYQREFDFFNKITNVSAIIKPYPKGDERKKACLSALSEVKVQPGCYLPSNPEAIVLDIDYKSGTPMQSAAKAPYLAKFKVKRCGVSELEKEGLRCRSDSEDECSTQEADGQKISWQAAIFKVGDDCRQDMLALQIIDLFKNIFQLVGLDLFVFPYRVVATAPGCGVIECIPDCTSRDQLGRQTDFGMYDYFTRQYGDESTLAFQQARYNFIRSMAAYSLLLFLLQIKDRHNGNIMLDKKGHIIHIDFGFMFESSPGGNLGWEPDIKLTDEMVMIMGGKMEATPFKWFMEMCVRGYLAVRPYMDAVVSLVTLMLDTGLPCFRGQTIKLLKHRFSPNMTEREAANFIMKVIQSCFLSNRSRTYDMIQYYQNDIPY
UniProt Q9UBF8: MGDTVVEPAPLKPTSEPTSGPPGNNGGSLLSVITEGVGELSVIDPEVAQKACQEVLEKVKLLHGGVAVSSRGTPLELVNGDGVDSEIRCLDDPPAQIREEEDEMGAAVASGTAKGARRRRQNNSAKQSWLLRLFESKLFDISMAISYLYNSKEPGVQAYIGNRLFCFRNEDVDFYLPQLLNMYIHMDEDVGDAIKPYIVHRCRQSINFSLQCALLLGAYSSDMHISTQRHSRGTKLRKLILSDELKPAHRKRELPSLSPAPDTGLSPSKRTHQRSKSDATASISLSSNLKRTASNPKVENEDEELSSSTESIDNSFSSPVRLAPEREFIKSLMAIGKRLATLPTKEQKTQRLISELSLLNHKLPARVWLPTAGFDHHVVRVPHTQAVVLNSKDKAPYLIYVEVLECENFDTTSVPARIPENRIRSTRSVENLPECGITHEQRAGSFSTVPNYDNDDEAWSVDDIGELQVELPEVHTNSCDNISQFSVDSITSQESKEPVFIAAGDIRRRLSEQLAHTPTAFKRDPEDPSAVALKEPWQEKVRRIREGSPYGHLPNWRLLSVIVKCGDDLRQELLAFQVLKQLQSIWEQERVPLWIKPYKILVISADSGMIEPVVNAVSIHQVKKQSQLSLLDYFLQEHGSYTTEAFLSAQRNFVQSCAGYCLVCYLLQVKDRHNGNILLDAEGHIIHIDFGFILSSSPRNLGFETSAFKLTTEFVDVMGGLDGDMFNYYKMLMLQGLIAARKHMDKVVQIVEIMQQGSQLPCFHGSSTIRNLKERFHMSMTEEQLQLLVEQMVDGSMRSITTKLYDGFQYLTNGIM

kinase-Nluc reporter destabilization hit call, inactive:
CC1(C)CN(C(=O)c2ccc(-c3cccc4nc(NC(=O)C5CC5)nn34)cc2)C1 [Solcitinib] (10 µM) 0
Cc1ccc(NC(=O)N2CCN(c3nc(N)nc4sc(-c5cccnc5)nc34)CC2)cc1 [PI4KIII beta inhibitor 3] (10 µM) 0
COc1ccc(Cl)cc1N(CC(=O)Nc1ccc2c(c1)OCO2)S(=O)(=O)c1ccccc1 (2.5 µM) 0
CN1CCN(c2ccc(-n3cc(-c4ccncc4OCC4CCNCC4)cn3)cc2)CC1 [MELK-8a (hydrochloride)] (10 µM) 0
CC1=CC(=O)C(C(C)C)=C/C1=N/OC(=O)c1ccccc1C [Poloxin] (2.5 µM) 0
O=C(O)/C=C(\CCc1ccc(Cl)cc1)c1ccccc1 (10 µM) 0
CCOC(=O)c1c(C)[nH]c(C=C2C(=O)Nc3ccccc32)c1C (10 µM) 0
O=C(NC[C@H](O)CO)c1ccncc1Nc1ccc(I)cc1F [Pimasertib] (10 µM) 0
O=[N+]([O-])c1ccc(-c2nc(-c3ccc(F)cc3)c(-c3ccncc3)[nH]2)cc1 (10 µM) 0
COc1ccc(CCNCc2ccc(OCc3ccc(Cl)nc3)c(OC)c2)cc1OC [SBE13 (Hydrochloride)] (10 µM) 0

Molecular target: PIK4CB (UniProt Q9UBF8)
Experiment: as above
Conditions: K562; 2-18 h

kinase-Nluc reporter destabilization hit call, inactive:
COc1ccc2nc3ccc(OC)cc3c(SCCCN)c2c1 (10 µM) 0
NC(=O)c1sc2c([N+](=O)[O-])cc(C(F)(F)F)cc2[n+]1[O-] [Cyclapolin 9] (10 µM) 0
CS(=O)(=O)c1cccc(CNc2nc(Nc3ccc4c(c3)CCC(=O)N4)ncc2C(F)(F)F)c1 (10 µM) 0
CS(=O)(=O)c1ccc([C@@H](CC2CCCC2)C(=O)Nc2nccs2)cc1 (10 µM) 0
C=CC(=O)Nc1cc(Nc2nccc(-c3cn(C)c4ccccc34)n2)c(OCC(F)(F)F)nc1N(C)CCNC [AST5902  (trimesylate)] (2.5 µM) 0
CO/N=C1/C(c2c(O)[nH]c3cc(Cl)c(Cl)cc23)=Nc2ccccc21 (10 µM) 0
CC(ONC(=O)c1cc(C(F)(F)F)cc(C(F)(F)F)c1)C(=O)Nc1ccc(Cl)cc1 (stereo unspecified) (2.5 µM) 0
Cc1ccc(C2CC(=O)NC(SCC(=O)Nc3nccs3)=C2C#N)cc1 (stereo unspecified) [Necrostatin-34] (10 µM) 0
O=CN1CCN(c2ccc(C=C3C(=O)Nc4ccccc43)cc2)CC1 (10 µM) 0
CCCS(=O)(=O)N[C@H]1C[C@@H](N(C)c2ncnc3[nH]ccc23)C1 [Abrocitinib] (10 µM) 0
NC(=O)c1cnc(N[C@@H]2CCCC[C@@H]2N)nc1Nc1cccc(-n2nccn2)c1 (2.5 µM) 0
CS[C@@]1(C(=O)Nc2ccc3[nH]nc(-c4ccc(OC(C)C)nc4)c3c2)CCN(CC(=O)N2CC=C(c3ccc(-c4ncn(C)n4)cc3)CC2)C1 (2.5 µM) 0
Fc1ccc(Cl)cc1-c1nc(Nc2ccncc2)c2nccnc2n1 (10 µM) 0
O=C(Nc1ccccc1C(=O)NC1CCCCNC1=O)c1cc2ccccc2s1 (stereo unspecified) (10 µM) 0
O=C(O)c1c[nH]c2cc(Cl)c(-c3ccc(C4(O)CCC4)cc3)cc12 (10 µM) 0
CN(C[C@@H]1COCCO1)S(=O)(=O)Nc1ccc2ccc3ncc(-c4cnn(C)c4)cc3c(=O)c2c1 (2.5 µM) 0
NC(=O)c1ccccc1Nc1ccnc(Nc2cccc(O)c2)n1 (10 µM) 0
Cc1ccc2c(NS(=O)(=O)c3ccccc3Cl)cccc2c1Oc1ncccc1-c1ccnc(N[C@H]2CCCNC2)n1 (2.5 µM) 0
O=C(Nc1ccc(Cl)cc1)C1CN(C(=O)c2cccc(-c3ccco3)c2)CC(F)(F)C1 (stereo unspecified) (2.5 µM) 0
COc1ccc(CN2CCC(c3ccc4nc(C(=O)N5CCN(Cc6ccc(C(F)(F)F)cc6)CC5)[nH]c4c3)CC2)cn1 (2.5 µM) 0
CC(C)=CCC[C@](C)(O[C@@H]1O[C@H](CO[C@@H]2O[C@H](CO)[C@@H](O)[C@H](O)[C@H]2O)[C@@H](O)[C@H](O)[C@H]1O)[C@H]1CC[C@]2(C)[C@@H]1[C@H](O)C[C@@H]1[C@@]3(C)CC[C@H](O[C@@H]4O[C@H](CO)[C@@H](O)[C@H](O)[C@H]4O[C@@H]4O[C@H](CO)[C@@H](O)[C@H](O)[C@H]4O)C(C)(C)[C@@H]3CC[C@]12C [Ginsenoside Rb1] (10 µM) 0

Reprinted at random: 2 entries already listed
kinase-Nluc reporter destabilization hit call, inactive:
CC(C)=CCC[C@](C)(O[C@@H]1O[C@H](CO[C@@H]2O[C@H](CO)[C@@H](O)[C@H](O)[C@H]2O)[C@@H](O)[C@H](O)[C@H]1O)[C@H]1CC[C@]2(C)[C@@H]1[C@H](O)C[C@@H]1[C@@]3(C)CC[C@H](O[C@@H]4O[C@H](CO)[C@@H](O)[C@H](O)[C@H]4O[C@@H]4O[C@H](CO)[C@@H](O)[C@H](O)[C@H]4O)C(C)(C)[C@@H]3CC[C@]12C [Ginsenoside Rb1] (10 µM) 0
NC(=O)c1sc2c([N+](=O)[O-])cc(C(F)(F)F)cc2[n+]1[O-] [Cyclapolin 9] (10 µM) 0

Reference: the supplement of paper PMC12823440, “Inhibitors supercharge kinase turnover through native proteolytic circuits” (Nature, 2025)
